Patent US12077555B2, “STAT degraders and uses thereof” (Kymera Therapeutics, Inc., priority 2019, dated 2024)
The match of structure and compound is tentative.

Amino acid sequences for entries named in this document (tags omitted).
UniProt P40763, whole entry: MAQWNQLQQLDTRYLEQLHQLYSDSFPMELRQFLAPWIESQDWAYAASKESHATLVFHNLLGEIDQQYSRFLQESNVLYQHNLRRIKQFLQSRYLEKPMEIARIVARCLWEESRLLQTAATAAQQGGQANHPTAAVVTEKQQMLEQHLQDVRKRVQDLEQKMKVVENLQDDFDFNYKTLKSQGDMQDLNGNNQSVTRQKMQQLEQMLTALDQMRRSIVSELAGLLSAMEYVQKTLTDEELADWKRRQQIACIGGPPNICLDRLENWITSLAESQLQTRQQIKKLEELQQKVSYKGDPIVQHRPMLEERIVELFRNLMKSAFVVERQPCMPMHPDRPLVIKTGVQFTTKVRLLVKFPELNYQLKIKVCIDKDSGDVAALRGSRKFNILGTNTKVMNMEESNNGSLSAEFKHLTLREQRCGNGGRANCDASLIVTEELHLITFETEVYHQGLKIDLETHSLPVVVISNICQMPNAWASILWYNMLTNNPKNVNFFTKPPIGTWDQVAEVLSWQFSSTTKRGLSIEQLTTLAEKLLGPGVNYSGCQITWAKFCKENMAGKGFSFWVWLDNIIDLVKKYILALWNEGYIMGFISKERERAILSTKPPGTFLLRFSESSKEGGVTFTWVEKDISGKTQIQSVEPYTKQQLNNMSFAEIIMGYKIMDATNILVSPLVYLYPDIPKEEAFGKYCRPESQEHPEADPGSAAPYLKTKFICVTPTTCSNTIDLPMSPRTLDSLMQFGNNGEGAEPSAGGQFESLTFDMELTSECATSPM

Legend:
SU-DHL-1 cells = assay: Wash-out study in SU-DHL-1 cells; settings: 1 uM compound for 24 and 48 hr, then wash-out; FIGS. 10 and 18
Protocol: I-103 and I-174 were tested in the wash-out protocol.
• Seed cell suspension in T75 flasks and treat with 0.1% DMSO and 1 uM compound for 24 and 48 hr. Day 0 • Collect cell suspension from the flasks in conical tubes after 24 and 48 hr, spin down at 1,000 rpm for 5 min. • Remove supernatant. Wash with PBS, spin down at 1,000 rpm for 5 min, repeat PBS wash one more time. • Seed the cells at 2,000 cells per well in 384-well plates for growth inhibition measurement via CellTiterGlo (CTG) and 10,000 cells per well in 96-well plates for STAT3 levels via MSD. • Measure T0 for CTG and collect pellets to measure levels of STAT3 by MSD Day 1-4 • Measure CTG every day for 4 days post wash-out. • Collect pellets and measure levels of STAT3 by MSD every day for 4 days post wash-out. Growth inhibition was normalized to T0 and graphed as % control.

STAT3 [1] = molecular target: T1, STAT3 (Homo sapiens, UniProt P40763); assay: Deep tandem mass tag proteomics; settings: Molm-16 and SU-DHL-1 cells, 8 hours, FIGS. 4 and 13
Protocol: Total protein was isolated from cells (e.g., Molm-16 and SU-DHL-1) and treated with degrader for 8 hours. Vehicle (DMSO)-treated cells were used as controls. Protein lysates, 2 biological replicates per condition, were prepared at 4 C in 8M urea, 75 mM NaCl, 1 mM EDTA in 50 mM Tris HCl (pH 8), 10 mM NaF, phosphatase inhibitor cocktail 2 (1:100; Sigma, P5726) and cocktail 3 (1:100; Sigma, P0044), 2 μg/mL aprotinin (Sigma, A6103), 10 μg/mL Leupeptin (Roche, 11017101001), and 1 mM PMSF (Sigma, 78830). Lysates were spun at 20,000 rcf for 10 min and supernatant (containing extracted proteins) was transferred to a clean microcentrifuge tube. Protein concentrations were determined using the Pierce BCA assay. Protein lysates were reduced with 5 mM dithiothreitol (Thermo Scientific, 20291) for 45 min at room temperature and alkylated with 10 mM iodoacetamide (Sigma, A3221) for an additional 45 min. […] Online fractionation was performed using a nanoflow Proxeon EASY-nLC 1200 UHPLC system (Thermo Fisher Scientific) and separated peptides were analyzed on a benchtop Orbitrap Q Exactive plus mass spectrometer (Thermo Fisher Scientific). All data were analyzed using Spectrum Mill software package (Agilent Technologies). […] In total, 10,992 proteins were quantified. […]

STAT3 [2] = molecular target: T1, STAT3; assay: STAT3 degradation (DC50) in multiple ALK+ALCL cell lines; settings: dose response curves, FIG. 14; tested form: diammonium
Excerpt: FIG. 14 depicts dose response curves and DC50 results showing I-174 and I-94 mediated degradation in multiple ALK+ALCL cell lines.

| Compound | viability of SU-DHL-1 cells after wash-out (SU-DHL-1 cells) | selectivity of degradation for STAT3 vs >10,000 other detected proteins (STAT3 [1]) | degradation in multiple ALK+ALCL cell lines (STAT3 [2]) |
| --- | --- | --- | --- |
| Cn1c(=O)n(C2CCC(=O)NC2=O)c2ccc(CCCCCCC(=O)N3CC[C@H]4CC[C@@H](C(=O)N[C@@H](CCC(N)=O)C(=O)NC(c5ccccc5)c5ccccc5)N4C(=O)[C@@H](NC(=O)c4cc5cc(C(=O)P(=O)(O)O)ccc5[nH]4)C3)cc21 (stereo partly drawn) | profound effects on the viability of SU-DHL-1 cells | highly selective for STAT3 | – |
| Cc1ncsc1-c1ccc([C@H](C)NC(=O)[C@@H]2C[C@@H](O)CN2C(=O)[C@@H](NC(=O)CCCCc2ccc(CO[C@H](C)[C@H](CCC(N)=O)NC(=O)[C@@H]3Cc4cccc5c4N3C(=O)[C@@H](NC(=O)c3cc4cc(C(=O)P(=O)(O)O)ccc4[nH]3)CC5)cc2)C(C)(C)C)cc1 [Compound I-227] | – | – | mediated degradation |
